# Reference: the supplement of paper PMC8166895
# Structures can show the parent of a compound that is named as a salt. The list shows a part of the results. Most entries show no effect beyond the scatter of the controls.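 Differential scanning fluorimetry gave melting temperatures in a one-replicate pilot screen of a library of approved drugs plus clinical or known-target compounds. Hits increasing melting point at least 2 °C were the strongest stabilizers, while negative shifts signify destabilization.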 *1 amine or outer side, *2 acyl side, *3 side chain or, on linkers, in order; H or OH if unused. Where a SMILES comes first, the peptide text is derived from it. Bridges are numbered along the chain shown (N, C = ends). [ ]: non-standard residue; d: D form. The star is where a group is joined. pTerphenylCO(4''-OnC5H11) = CCCCCOc1ccc(-c2ccc(-c3ccc(C(=O)*)cc3)cc2)cc1; Orn(4R-OH,5R-OH) = O=C([C@H](C[C@@H](O)[C@@H](O)N[*:3])N[*:1])[*:2]; hTyr(3S-OH,4S-OH) = N[C@H](C(=O)O)[C@H](O)[C@@H](O)c1ccc(O)cc1; Pro(3S-OH,4S-Me) = C[C@H]1CN[C@H](C(=O)O)[C@H]1O; Hyp = O=C(O)[C@@H]1C[C@@H](O)CN1
# Test system: SARS-CoV-2 main protease (Mpro, nsp5)
# Test: thermal shift ΔTm of Mpro relative to plate average Tm; higher = stronger thermal stabilization of Mpro (binding)
# Conditions: 10 µM; protein concentration 1 µM
row,Compound,thermal shift ΔTm of Mpro
1,C#Cc1cccc(Nc2ncnc3cc(OC)c(OCCCCCCC(=O)NO)cc23)c1,0.122 °C
2,CC(=O)S[C@@H]1CC2=CC(=O)CC[C@]2(C)[C@H]2CC[C@@]3(C)[C@@H](CC[C@@]34CCC(=O)O4)[C@H]12 [Spironolactone],0.111 °C
3,COc1cccc2c1c(O)c(C(=O)N(C)c1ccc(C(F)(F)F)cc1)c(=O)n2C [Tasquinimod],-0.139 °C
4,CCCc1cc(C(N)=S)ccn1 [Protionamide],0.0401 °C
5,CC(=O)Nc1ccc(C(=O)Nc2ccccc2N)cc1 [CI994 (Tacedinaline)],0.203 °C
6,COc1cc2c(Nc3ccc(NC(=O)c4ccccc4)cc3)ncnc2cc1OCCCN1CCOCC1,0.208 °C
7,CC(Cc1cccc(C(F)(F)F)c1)NCCOC(=O)c1ccccc1 (stereo not given) [Benfluorex hydrochloride],0.13 °C
8,O=C(O)[C@]1(Cc2cccc(Nc3nccs3)n2)CC[C@@H](Oc2cccc(Cl)c2F)CC1,0.158 °C
9,O=C(Nc1ccc(O)c(C(=O)O)c1)c1cccc(NC(=O)c2ccco2)c1,-0.0931 °C
10,C=C1CC[C@H](O)C/C1=C/C=C1\CCC[C@]2(C)[C@@H]([C@H](C)CCCC(C)C)CC[C@@H]12 [Vitamin D3],0.588 °C
11,Cc1ccc(/C=C2\SC(=S)N(CCCCCC(=O)Nc3ccc(C(=O)O)c(O)c3)C2=O)cc1,-0.0418 °C
12,CC(C)(O)[C@H]1CC[C@@](C)([C@H]2[C@@H](O)C[C@@]3(C)[C@@H]4C[C@H](O[C@@H]5O[C@H](CO)[C@@H](O)[C@H](O)[C@H]5O)[C@H]5C(C)(C)[C@@H](O[C@@H]6OC[C@@H](O)[C@H](O)[C@H]6O)CC[C@@]56C[C@@]46CC[C@]23C)O1 [Astragaloside A],-0.0988 °C
13,CC(C)c1c(CN(C)C(C)Cc2ccccc2)n(C)n(-c2ccccc2)c1=O (stereo not given) [Famprofazone],0.122 °C
14,CN1CCN(C(=O)/C=C/c2ccc([N+](=O)[O-])o2)CC1,-0.0556 °C
15,Cc1nccnc1N1CCCCC1 [Modaline sulfate],0.236 °C
16,C[C@@H](Oc1ccc2[nH]nc(/C=C/c3cnn(CCO)c3)c2c1)c1c(Cl)cncc1Cl,-0.244 °C
17,O=P1(NCCCl)OCCCN1CCCl (stereo not given) [Ifosfamide],0.276 °C
18,CC[C@H]1[C@@H](O)[C@@H]2[C@H](CC[C@]3(C)[C@@H]([C@H](C)CCC(=O)O)CC[C@@H]23)[C@@]2(C)CC[C@@H](O)C[C@@H]12 [Obeticholic Acid],-0.0524 °C
19,CNC1CCCN(c2c(F)cc3c(=O)c(C(=O)O)cn(C4CC4)c3c2OC)C1 (stereo not given) [Balofloxacin],0.0493 °C
20,CC1=C(C)C(=O)C(CCCCCCCCCC[P+](c2ccccc2)(c2ccccc2)c2ccccc2)=CC1=O [Visomitin],0.0701 °C

row,Compound,thermal shift ΔTm of Mpro
1,CN1CCC(=C2c3ccccc3C=Cc3ccccc32)CC1 [Cyproheptadine HCl],0.0534 °C
2,O=C(Nc1ccc(Br)cc1)c1ccc(Br)c(S(=O)(=O)NCc2ccccc2)c1,-0.00677 °C
3,CO[C@H]1/C=C/O[C@@]2(C)Oc3c(C)c(O)c4c(O)c(c(/C=N/N5CCN(C6CCCC6)CC5)c(O)c4c3C2=O)NC(=O)/C(C)=C\C=C\[C@H](C)[C@H](O)[C@@H](C)[C@@H](O)[C@@H](C)[C@H](OC(C)=O)[C@@H]1C [Rifapentine],0.0509 °C
4,N=C(N)NC(=N)NCCc1ccccc1 [Phenformin HCl],-0.0289 °C
5,CC[C@H](CO)Nc1nc(N(C)Cc2ccccc2)c2ncn(C(C)C)c2n1 [Aftin-4],0.0348 °C
6,CNC(=O)c1ccccc1Nc1nc(Nc2ccc(N3CCNCC3)cc2)ncc1Cl,0.322 °C
7,CCNC(=O)[C@H]1O[C@@H](n2cnc3c(N)nc(NCCc4ccc(CCC(=O)O)cc4)nc32)[C@H](O)[C@@H]1O,-0.0586 °C
8,COC(=O)N[C@H](C(=O)N1CC2(CC2)C[C@H]1c1ncc(-c2ccc3c(c2)C(F)(F)c2cc(-c4ccc5nc([C@@H]6[C@H]7CC[C@H](C7)N6C(=O)[C@@H](NC(=O)OC)C(C)C)[nH]c5c4)ccc2-3)[nH]1)C(C)C [Ledipasvir acetone],0.0148 °C
9,O=C(COc1cccc2c(=O)[nH]ccc12)c1ccccc1,-0.181 °C
10,CC1=C(C(=O)Nc2ccc3[nH]ncc3c2)C(c2ccc(F)c(C(=O)NCc3ccccn3)c2)NC(=O)N1 (stereo not given),-0.0578 °C
11,CC1=C[C@@H]2[C@H]3[C@H](C(C)=C4[C@H]5OC(=O)[C@@H](C)[C@@H]5CC[C@](C)(O)[C@@H]43)[C@@]13[C@@H]2[C@@](C)(O)CC[C@H]1[C@H](C)C(=O)O[C@@H]13 [Absinthiin],-0.0384 °C
12,O=C1CCC[C@@H]2[C@H]3CCCN4CCC[C@@H](CN12)[C@@H]34 [(+)-Matrine],-0.148 °C
13,CCOCCn1c(C2CCN(CCc3ccc(C(C)(C)C(=O)O)cc3)CC2)nc2ccccc21 [Bilastine],0.265 °C
14,Nc1ccc(S(=O)(=O)NC(=O)c2ccccc2)cc1 [Sulfabenzamide],-0.193 °C
15,"CCCCCOc1ccc(-c2ccc(-c3ccc(C(=O)N[C@H]4C[C@@H](O)[C@@H](O)NC(=O)[C@@H]5[C@@H](O)[C@@H](C)CN5C(=O)[C@H]([C@@H](C)O)NC(=O)[C@H]([C@H](O)[C@@H](O)c5ccc(O)cc5)NC(=O)[C@@H]5C[C@@H](O)CN5C(=O)[C@H]([C@@H](C)O)NC4=O)cc3)cc2)cc1 ({pTerphenylCO(4''-OnC5H11)}-[Orn(4R-OH,5R-OH)]T[Hyp][hTyr(3S-OH,4S-OH)]T[Pro(3S-OH,4S-Me)]; lactam 1-C)",-0.269 °C
16,CC(C)c1nc(N(C)S(C)(=O)=O)nc(-c2ccc(F)cc2)c1/C=C/[C@@H](O)C[C@@H](O)CC(=O)O [Rosuvastatin],0.38 °C
17,CC(C)c1nc(N(C)S(C)(=O)=O)nc(-c2ccc(F)cc2)c1/C=C/[C@@H](O)C[C@@H](O)CC(=O)O [Rosuvastatin Calcium],-0.0119 °C
18,C=C(C)[C@@H]1CC[C@]2(C(=O)O)CC[C@]3(C)[C@H](CC[C@@H]4[C@@]5(C)CC[C@H](O)C(C)(C)[C@@H]5CC[C@]43C)[C@@H]12 [Betulinic acid],0.174 °C
19,C1N2CN3CN1CN(C2)C3 [Methenamine],0.198 °C
20,Cc1cccc(C)c1NC1=NCCCS1 [Xylazine HCl],0.0679 °C

# Exported as tab-separated lines: entries from further up
row	Compound	thermal shift ΔTm of Mpro
12	CC(C)(O)[C@H]1CC[C@@](C)([C@H]2[C@@H](O)C[C@@]3(C)[C@@H]4C[C@H](O[C@@H]5O[C@H](CO)[C@@H](O)[C@H](O)[C@H]5O)[C@H]5C(C)(C)[C@@H](O[C@@H]6OC[C@@H](O)[C@H](O)[C@H]6O)CC[C@@]56C[C@@]46CC[C@]23C)O1 [Astragaloside A]	-0.0988 °C
15	Cc1nccnc1N1CCCCC1 [Modaline sulfate]	0.236 °C
9	O=C(COc1cccc2c(=O)[nH]ccc12)c1ccccc1	-0.181 °C
